No constants are given. Whether binding was seen depends on the method and setting. Some results given as binding are weak or reduced against the parent protein; the word gives no strength.
Target: Aβ-42 (UniProt P05067)
Experiment: ELISA: 200 pg peptide coated on plate, 10 ng Aβ-42 added, detected with biotin-labelled 4G8 antibody, absorbance at 620 nm

Amino acid sequences for entries named in this document (tags omitted). Residues count along the entry.
UniProt P05067, residues 672-713: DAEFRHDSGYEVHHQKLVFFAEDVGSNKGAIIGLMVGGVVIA

- binding: binds
Binder: LPFFD

Reference: patent US20110189290A1
